{"source": "PubChem BioAssay AID504793 – Drosophila RNAi Screening Center, 2011", "purpose": "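Genes required for cells to halt at G2/M after double-strand DNA breaks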 (primary screen)", "system": "Drosophila S2R+ cells", "knock-down reagent": "long dsRNA against Drosophila genes, about 0.25 µg dsRNA per well", "duration": "4 days of dsRNA, then 4 hours of drug before read-out", "challenge": "doxorubicin 0.5 µM for 4 hours to cause double-strand breaks, in cells also given a low, harmless dose of dsRNA against nbs to sensitise the assay", "measured": "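Per-well count of mitotic cells stained for phospho-histone H3 after doxorubicin exposure, used as mitotic index; counts are raw and not normalised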", "direction": "mitotic cells: higher = more cells in mitosis, weaker G2 arrest", "call rule": "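a call needs confirmation in secondary tests, with other dsRNAs and a check of mitotic timing without damage, not just a high primary count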", "meaning of the calls": "active = confirmed in follow-up tests; inactive = not confirmed", "note": "In all, the deposit lists about 23,000 reagents; shown is a random part of those with a known target gene and a result. Over the whole deposit, 62 (0.27%) are marked active. 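Calls come from follow-up tests whose scores are not deposited, so confirmed genes may have low counts here; counts are not normalised per plate.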 Raw values vary from plate to plate and are shown uncorrected. Reagent sequences are not shown."}
{"target": "CG15614", "dsRNA": "DRSC06567", "mitotic cells, replicate 1": 5, "activity call": "inactive"}
{"target": "Ppm1", "dsRNA": "DRSC08260", "mitotic cells, replicate 1": 6, "activity call": "inactive"}
{"target": "Ppm1", "dsRNA": "DRSC27792", "mitotic cells, replicate 1": 3, "activity call": "inactive"}
{"target": "acs (arcus)", "dsRNA": "DRSC08185", "mitotic cells, replicate 1": 4, "activity call": "inactive"}
{"target": "acs (arcus)", "dsRNA": "DRSC27629", "mitotic cells, replicate 1": 4, "activity call": "inactive"}
{"target": "Ada2a (transcriptional Adaptor 2a)", "dsRNA": "DRSC16206", "mitotic cells, replicate 1": 14, "activity call": "inactive"}
{"target": "Ada2a (transcriptional Adaptor 2a)", "dsRNA": "DRSC21598", "mitotic cells, replicate 1": 35, "activity call": "active"}
{"target": "CG13331", "dsRNA": "DRSC06366", "mitotic cells, replicate 1": 7, "activity call": "inactive"}
{"target": "BobA", "dsRNA": "DRSC09889", "mitotic cells, replicate 1": 7, "activity call": "inactive"}
{"target": "bap (bagpipe)", "dsRNA": "DRSC16908", "mitotic cells, replicate 1": 6, "activity call": "inactive"}
{"target": "bap (bagpipe)", "dsRNA": "DRSC27201", "mitotic cells, replicate 1": 8, "activity call": "inactive"}
{"target": "na (narrow abdomen)", "dsRNA": "DRSC19639", "mitotic cells, replicate 1": 11, "activity call": "inactive"}
{"target": "na (narrow abdomen)", "dsRNA": "DRSC29828", "mitotic cells, replicate 1": 3, "activity call": "inactive"}
{"target": "akirin", "dsRNA": "DRSC11000", "mitotic cells, replicate 1": 5, "activity call": "inactive"}
{"target": "akirin", "dsRNA": "DRSC26196", "mitotic cells, replicate 1": 4, "activity call": "inactive"}

Laid out differently: entries from further up
target	dsRNA	mitotic cells, replicate 1	activity call
CG13331	DRSC06366	7	inactive
BobA	DRSC09889	7	inactive
